Measurements: PubChem BioAssay AID2685 (National Center for Advancing Translational Sciences (NCATS), 2010)
This is one part of the list. The main result of the screen is listed elsewhere. These columns were measured beside it and carry no call. Most of these compounds were active or inconclusive in the main read-out, so they are no random draw. The note in brackets gives the kind of curve behind each potency; many fits are weak.

Assay: qHTS Assay for Lipid Storage Modulators in Drosophila S3 Cells;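 on cell number change: cells counted by Cell Tracker Red CMTPX staining in the red channel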
Conditions: BODIPY lipid droplet fluorescence, 18-24 h; for cell number change: measured here: cell count max response, cells fed with added oleic acid
Summary of the method: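 Drosophila S3 cells loaded with oleic acid (400 uM, as added) and compounds at several concentrations; lipid droplets imaged by 488-nm laser-scanning cytometry, 500–530 nm intensity and object ratio to cell channel. Percent activity normalized to 20 uM Triacsin C.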

[1] = measured here: lipid fluorescence (Fed channel) AC50, cells fed with added oleic acid
[2] = measured here: cell number channel AC50, cells fed with added oleic acid

| SMILES | AC50 [1] | cell number change | AC50 [2] |
| --- | --- | --- | --- |
| C/C(=N\NC(=S)NCc1ccccc1)c1ccc(Cl)cc1 | 2.59 µM [rising, full curve, poor fit] | – | – |
| CCc1ccccc1Nc1nc(N)nc(COC(=O)c2cccn2C)n1 | – | 32.5% | 1.84 µM [rising, full curve, poor fit] |
| CCN(CC)S(=O)(=O)c1ccc(NC(=O)CNC2CCCCC2)cc1 | – | -33.3% | 29.1 µM [falling, single point] |
| CC(=O)N1CCC(=NNc2ccc(S(=O)(=O)N3CCOCC3)cc2[N+](=O)[O-])CC1 | 6.51 µM [falling, single point] | -13.1% | – |
| Cc1noc(NS(=O)(=O)c2ccc(NC(=O)C(C)(C)C)cc2)c1C | 29.1 µM [rising, single point] | 14.2% | – |
| CCc1c(O)nc(SCC(=O)Nc2ccc(C)cc2)n(C2CCCCC2)c1=O | 0.731 µM [falling, full curve] | 99% | 23.1 µM [rising, partial curve] |
| Cc1ccc(S(=O)(=O)NCC(=O)N/N=C/c2ccc(Cl)cc2)cc1 | 0.0058 µM [falling, full curve, poor fit] | -43.9% | 29.1 µM [falling, single point] |
| COCCCn1c(-c2ccc(Cl)cc2)n[nH]c1=S | 0.116 µM [falling, full curve, poor fit] | 1.02% | 0.517 µM [falling, single point] |
| Cc1sc(NC(=O)CN(Cc2ccc(F)cc2)C(=O)C(C)C)c(C(N)=O)c1C | 25.9 µM [rising, single point] | 23.5% | – |
| CC(=O)c1c(C(C)=O)c(C)n(-c2nc(-c3ccc(Br)cc3)c(C)s2)c1C | 18.4 µM [rising, partial curve, poor fit] | -17.1% | 0.731 µM [rising, single point] |
| O=C(NNC(=O)c1ccccc1[N+](=O)[O-])Nc1ccc(Cl)cc1 | 29.1 µM [rising, single point] | 21.4% | – |
| Cc1ccc2nc(C)cc(OCC(=O)O)c2c1 | – | -0.369% | – |
| O=C(NC1CCS(=O)(=O)C1)c1cnccn1 (configuration not stated) | – | 10.7% | – |
| Cc1cc(OC(=O)c2ccccc2F)c([N+](=O)[O-])c(=O)[nH]1 | – | -16.5% | – |
| Cc1ccc(S(=O)(=O)N2[C@@H](c3ccc(Cl)cc3)C(C(=O)O)=CC[C@H]2c2ccc(Cl)c(Cl)c2)cc1 | – | -22.1% | – |
| NS(=O)(=O)c1ccc(CNC(=O)/C=C/c2c(F)cccc2Cl)cc1 | – | -35.7% | 11.6 µM [falling, partial curve] |
| Cc1ccc(S(=O)(=O)N2CCN(C(=O)c3ccc4nc[nH]c4c3)CC2)cc1 | – | 28.5% | – |
| COc1ccccc1NC(=S)NC(=O)c1ccc(Cn2cc(Br)cn2)cc1 | 6.51 µM [rising, partial curve, poor fit] | 24.4% | – |
| CCOc1ccc(N(CC(=O)NC2CCCCC2)C(=O)CCCC(=O)Nc2ccccn2)cc1 | 29.1 µM [falling, partial curve, poor fit] | 13.9% | – |
| O=C1C2C3C=CC(C2C(=O)N1C1CCCCC1)C1C(=O)N(C2CCCCC2)C(=O)C31 (configuration not stated) | 3.26 µM [rising, single point] | 22.5% | – |
| CCOC(=O)c1cnn(-c2ccccc2)c1-n1cccc1C(=O)C(=O)Nc1ccc(F)cc1 | 5.8 µM [falling, partial curve] | -26.9% | – |

| SMILES | AC50 [1] | cell number change | AC50 [2] |
| --- | --- | --- | --- |
| C=CCNCC(=O)NN=C(c1ccccc1)c1ccccc1 | 29.1 µM [rising, single point] | – | – |
| CC12CC3CC(C)(C1)CC(C(=O)NCc1ccco1)(C3)C2 | – | -17.1% | – |
| COc1ccccc1NC(=O)N1CCCC(C(=O)Nc2cccc(C)c2C)C1 (configuration not stated) | – | – | 6.51 µM [rising, single point] |
| CCOC(=O)c1c(NC(=O)C2C3CCC(O3)C2C(=O)O)sc2c1CCC(CC)C2 (configuration not stated) | – | 31.6% | 32.6 µM [rising, single point] |
| CC1CCN(C(=S)c2ccccc2O)CC1 | 0.231 µM [falling, full curve, poor fit] | – | – |
| Cc1ccc2c(COC(=O)c3ccc(NC(=O)CC#N)cc3)cc(=O)oc2c1C | – | 33.5% | 7.31 µM [rising, partial curve] |
| O=C(Nc1ccc2c(c1)CCC2)c1cc(F)cc(F)c1 | 23.1 µM [falling, single point] | 2.71% | – |
| CCn1c(COc2ccccc2C)nnc1SCC(=O)CC(=O)Nc1ccccc1OC | 2.59 µM [rising, full curve] | 9.72% | – |
| CCC(C)Cn1c(C)nc2ccccc21 (configuration not stated) | 1.16 µM [rising, single point] | -9.66% | – |
| Cc1ccc(NC(=O)CSc2ccc3c(c2)OCCO3)c(O)c1 | – | 31.6% | 18.4 µM [rising, partial curve, poor fit] |
| CC(C)CC(C(=O)N1CCOCC1)N1Cc2ccccc2C1=O (configuration not stated) | – | -12.5% | – |
| COc1cccc(NC(=O)C2CCCN(S(=O)(=O)c3ccc(-n4cnnn4)cc3)C2)c1 (configuration not stated) | – | 14.5% | – |
| O=C(Nc1ccc2c(c1)OCO2)C1CCCN1C(=O)OCc1ccccc1 (configuration not stated) | 5.8 µM [rising, full curve, poor fit] | -16.8% | – |
| Cc1ccc(Cn2c(SCC(=O)N(C)C3CCS(=O)(=O)C3)nc3ccccc3c2=O)cc1 (configuration not stated) | – | -75% | 1.64 µM [falling, partial curve] |
| Cc1ccc(S(=O)(=O)N2CCCC2CNC(=O)C(=O)NCc2cccs2)cc1 (configuration not stated) | – | -25% | 4.11 µM [falling, single point] |
| O=C(CSc1nc(O)c(Cc2ccccc2)c(=O)[nH]1)Nc1nnc(SCc2ccccc2)s1 | – | -14.6% | – |
| CC1CCC2(CC1)NC(=O)N(CC(=O)Nc1cccc(S(=O)(=O)N3CCOCC3)c1)C2=O (configuration not stated) | 18.4 µM [falling, single point] | -45% | 14.6 µM [falling, single point] |
| O=C(CCCCCNc1nc(=S)[nH]c2ccccc12)NCCc1ccc(Cl)cc1 | – | 22.2% | – |
| Cc1cc(Nc2ccc(F)c(Cl)c2)n2nc(C)nc2n1 | 9.2 µM [rising, partial curve, poor fit] | 18.9% | – |
| Cc1cc(C)c(C(N)=O)c(SCC(=O)c2ccc(Cl)cc2)n1 | 29.1 µM [rising, single point] | – | – |
| O=C(CSc1nnc(COc2ccc(Cl)cc2)o1)N1c2ccccc2CCc2ccccc21 | 29.1 µM [falling, single point] | -30.2% | 29.1 µM [falling, single point] |

By substructure, the compounds so far containing two or more sulfur atoms (three)

| SMILES | AC50 [1] | cell number change | AC50 [2] |
| --- | --- | --- | --- |
| Cc1ccc(Cn2c(SCC(=O)N(C)C3CCS(=O)(=O)C3)nc3ccccc3c2=O)cc1 (configuration not stated) | – | -75% | 1.64 µM [falling, partial curve] |
| Cc1ccc(S(=O)(=O)N2CCCC2CNC(=O)C(=O)NCc2cccs2)cc1 (configuration not stated) | – | -25% | 4.11 µM [falling, single point] |
| O=C(CSc1nc(O)c(Cc2ccccc2)c(=O)[nH]1)Nc1nnc(SCc2ccccc2)s1 | – | -14.6% | – |

Going on with the list:

| SMILES | AC50 [1] | cell number change | AC50 [2] |
| --- | --- | --- | --- |
| CCCCCc1c(C)nc(N2CCOCC2)[nH]c1=O | 0.731 µM [falling, full curve, poor fit] | -24.4% | 0.411 µM [falling, full curve, poor fit] |
| CC(=O)c1sc2c(c1N)c(=O)[nH]c(=O)n2-c1ccccc1 | – | 1.41% | 6.51 µM [rising, single point] |
| O=C(Cc1ccccc1)NNC(=O)Nc1cccc(Cl)c1 | – | 21.4% | – |
| O=C(C1CCN(S(=O)(=O)c2ccccc2)CC1)N1CCN(c2ccccc2F)CC1 | 0.651 µM [rising, full curve, poor fit] | -14% | – |
| Cc1nc(N)c(Br)c(C)c1Br | 0.00461 µM [falling, full curve, poor fit] | -11.1% | – |
| Cn1c(CC(=O)NNC(=O)c2ccccc2F)nc2ccccc21 | 1.84 µM [falling, partial curve] | 21.6% | 2.06 µM [falling, partial curve] |
| C/C(N)=C(/C#N)C(=O)CSc1nnc(Nc2c(C)cccc2C)s1 | 0.0651 µM [rising, partial curve, poor fit] | -5.96% | – |
| CCN(CC(=O)Nc1ccc(OC)cc1)CC(=O)N1CC(=O)Nc2ccccc21 | 1.46 µM [falling, partial curve] | 2.69% | – |
| O=C(c1ccc(N2CCN(S(=O)(=O)c3ccccc3)CC2)c([N+](=O)[O-])c1)N1CCOCC1 | 29.1 µM [rising, single point] | 8.8% | – |
| S=C(NCCCc1ccccc1)Nc1ccccc1 | 0.58 µM [rising, single point] | -17.1% | – |
| CCOC(=O)c1nn(-c2ccc(C)c(Cl)c2)c(=O)c(C#N)c1C | 0.184 µM [rising, partial curve, poor fit] | 1.01% | – |
| O=C(O)C(=O)/C(=C\c1cccc(Cl)c1)c1ccc2ccccc2n1 | – | 38.4% | – |
| CCN1C(=O)N[C@@H](CCc2ccccc2)[C@@H](C(=O)OC)[C@H]1C | 20.6 µM [falling, single point] | -30.9% | 16.4 µM [falling, single point] |
| CCOC(=O)/C(C#N)=C/c1cc2ccccc2nc1N1CCCCC1 | 2.06 µM [falling, partial curve, poor fit] | -21.5% | – |
| NC(=O)C1(N2CCCCC2)CCN(Cc2ccccc2Cl)CC1 | 0.00461 µM [falling, full curve, poor fit] | 10.6% | – |
| CC1CCCCC12NC(=O)N(CC(=O)Nc1cccc(S(=O)(=O)N3CCCCC3)c1)C2=O (configuration not stated) | 0.731 µM [rising, single point] | 1.94% | – |
| COc1ccc(OC)c(S(=O)(=O)N2CCC(C(=O)NCc3ccc4c(c3)OCO4)CC2)c1 | 6.51 µM [rising, single point] | – | – |
| O=C(Nc1cccc(C(F)(F)F)c1)/C(=C/c1ccco1)NC(=O)c1cccs1 | – | -5.2% | – |
| CCN(CC)CCn1c(NCc2cccc(OC)c2)nc2ccccc21 | 3.66 µM [falling, partial curve] | -8.64% | – |
